Results taken from article PMC6558007.
Results are given in words; binding and its absence hold for the method and conditions named. Binding seen in cells or lysates may run through a third protein. A result given as binding can be weak or reduced; the word gives no strength. Tags and fused reporters may be left off the sequences shown.

Experiments:
[1] = biological target: HaGland5-GFP (Heterodera avenae); experiment: co-IP; HaGland5-GFP (or GFP, Ha15186-GFP) co-expressed with AtEMB3003-HA in N. benthamiana by agroinfiltration, 48 h; whole protein extract; Western blot
[2] = biological target: HaGland5-NLuc (Heterodera avenae); experiment: split reporter; firefly luciferase complementation imaging (LCI) in N. benthamiana leaves, 60 h after agroinfiltration, CCD imaging of LUC activity

Row | Binder | binding [1] | binding [2]
1 | AtEMB3003-HA (protein, UniProt Q9C8P0 32-465) IIPIQAKIREIFMPALSSTMTEGKIVSWVKSEGDKLNKGESVVVVESDKADMDVETFYDGYLAAIMVEEGGVAPVGSAIALLAETEDEIADAKAKASGGGGGGDSKAPPASPPTAAVEAPVSVEKKVAAAPVSIKAVAASAVHPASEGGKRIVASPYAKKLAKELKVELAGLVGSGPMGRIVAKDVEAVAAGGGVQAAVAVKEVVAAPGVELGSVVPFTTMQGAVSRNMVESLGVPTFRVGYTISTDALDALYKKIKSKGVTMTALLAKATALALAKHPVVNSSCRDGNSFVYNSSINVAVAVAIDGGLITPVLQNADKVDIYSLSRKWKELVDKARAKQLQPQEYNTGTFTLSNLGMFGVDRFDAILPPGTGAIMAVGASQPSVVATKDGRIGMKNQMQVNVTADHRVIYGADLAQFLQTLASIIEDPKDLTF | binds | –
2 | Cluc-AtEMB3003 (protein, UniProt Q9C8P0 32-465) IIPIQAKIREIFMPALSSTMTEGKIVSWVKSEGDKLNKGESVVVVESDKADMDVETFYDGYLAAIMVEEGGVAPVGSAIALLAETEDEIADAKAKASGGGGGGDSKAPPASPPTAAVEAPVSVEKKVAAAPVSIKAVAASAVHPASEGGKRIVASPYAKKLAKELKVELAGLVGSGPMGRIVAKDVEAVAAGGGVQAAVAVKEVVAAPGVELGSVVPFTTMQGAVSRNMVESLGVPTFRVGYTISTDALDALYKKIKSKGVTMTALLAKATALALAKHPVVNSSCRDGNSFVYNSSINVAVAVAIDGGLITPVLQNADKVDIYSLSRKWKELVDKARAKQLQPQEYNTGTFTLSNLGMFGVDRFDAILPPGTGAIMAVGASQPSVVATKDGRIGMKNQMQVNVTADHRVIYGADLAQFLQTLASIIEDPKDLTF | – | binds
